Percent effect of library compounds

The values are deposited in ChEMBL (CHEMBL3988442, “University of Dundee, Small-Polar-MMV Screening Library” (2021)).

Each number is a percent effect as filed. The record does not define 0% and 100%; most values in the screen are far below 50% and negative numbers occur (in some assays of this library far below -100). The compounds are a random part of those screened. Two or more numbers in one place are separate tests of the same structure; such repeats can differ widely.

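Growth of Mycobacterium tuberculosis over 4 days (cholesterol / DPPC medium with tyloxapol); the read-out is not stated. Tested at 50 µM. Higher reads as more growth inhibition (inferred: compounds with an IC50 in retests scored well above the rest). About 69,000 compounds were tested under these conditions; 0.54% (about 370) showed 50% or more at least once.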

structure | Percent Effect
CCc1noc(CNc2cc3c(cc2Cl)OCCCO3)n1 | -4.419%
CC(=O)Nc1ccc(CN2CCc3[nH]cnc3C2c2nccn2C)cc1 (stereo not shown) | -4.003% and 5.06%
Cl.O=C(c1ccnc(C2CCNCC2)c1)N1CCCC1 | -23.68% and -5.408%
COCCn1c2c(ccc1=O)CCN(Cc1ccoc1)CC2 | 5.788%
[H][C@@]12CN(S(C)(=O)=O)C[C@]1([H])OCC(=O)N2CC1CCC1 | -9.278%
O=C(CC1CCCC1)NCCS(=O)(=O)N1CCN(c2ncccn2)CC1 | -9.082%
CCCn1cc(CNCC(c2ccc(C)s2)N2CCOCC2)cn1 (stereo not shown) | -16.33%
CN1CCN(C(=O)NCCNc2ncccn2)Cc2ccccc21 | -3.341%
Cn1nc(C2CCCN2)c2c(C(=O)NC3CC3)cc(C3CC3)nc21 (stereo not shown) | -18.09%
CCc1cc(N(C)Cc2ccncn2)n2nc(C)c(C)c2n1 | 68.2%
CC(=O)N1CCN(C(=O)c2cnn(-c3ccccc3Cl)c2)CC1 | -8.977%
CCOC(=O)NC(CNC(=O)CCc1ccccn1)CC(C)C (stereo not shown) | 5.426%
Cc1ccoc1CNCc1nnc2n1CC(C(F)(F)F)CC2 (stereo not shown) | -26.07%
COC(C)(C)CNC(=O)c1cn(-c2cccc(Cl)c2F)nn1 | 0.7584%
c1ccc2nc(N3CCCC3c3nnc4n3CCCCC4)cnc2c1 (stereo not shown) | -3.342%
CC(C)OC(=O)N1CCC(Nc2ncc(Br)cn2)CC1 | -0.3704%
CC(C(N)=O)N1CCc2onc(-c3cccc(F)c3)c2C1 (stereo not shown) | 4.449%
CC(C)(C)c1cnc(CN2CCCS2(=O)=O)o1 | -19.3%
Cc1nc(C)c(C(=O)N2CCCC2c2nc(O)cc(C(C)C)n2)s1 (stereo not shown) | -24.02%
O=C(O)C(F)(F)F.O=C(O)C(F)(F)F.[H][C@@]12CCCO[C@]1([H])[C@H](N1CCOCC1)CN(C(=O)c1ccc(C)nc1)C2 | 5.766%
[H][C@@]12CCN(C)[C@]1([H])CN(C(=O)c1ccc3sc4c(c3c1)CCNC4=O)C2 | -12.13% and -0.9996%
COc1cc(NC(=O)NCc2nccn2C)ccc1Br | -7.459% and 0.2786%
CNc1cc(N2CCCC2CNCc2ccco2)ncn1 (stereo not shown) | -13.29%
CCS(=O)(=O)N1CCC(OCCCc2ccccc2)C1 (stereo not shown) | 17.87%
CNC(=O)C1=NOC2(CCN(Cc3nccs3)C2)C1 (stereo not shown) | 1.465%
CC(C)N(C)Cc1nnc2n1CCCN(S(=O)(=O)C1CC1)C2.O=C(O)C(F)(F)F | -12.42%
[H][C@@]12COC[C@@H](C(=O)N3CCOCC3)[C@]1([H])CN(CC1CCCC1)C2 | 22.16%
CC(C)c1ccc(C(C)NC(=O)N2CCC(n3cncn3)CC2)cc1 (stereo not shown) | 0.7925%
Cc1ccc(C(C)N(C)C(=O)c2ccc(=O)n(C)c2)s1 (stereo not shown) | -9.307%
Cc1cc(C(=O)NCCN2CCCc3ccccc32)[nH]n1 | -17.61%
CNC(=O)N1CCN(C(=O)C(C)C)CC2(CC(=O)N(C)C2)C1 (stereo not shown) | -3.785%
CCNC(=O)[C@@H]1C[C@@H](NC(=O)c2ccc(C)s2)CN1Cc1ccccn1 | -16.39%
Cc1cc(=O)[nH]c(=O)n1-c1cccc(Cl)c1Cl | -6.446%
Nc1ncnc2nc(C3CCN(C(=O)Cc4ccc(F)cc4)C3)ccc12 (stereo not shown) | -13.01% and 8.779%
N#Cc1ccc(CN2CCCC2Cn2cccn2)cc1 (stereo not shown) | -0.1254%
O=C(Nc1cc(F)ccc1OCC1CCCO1)c1ccoc1 (stereo not shown) | 4.368%
CC1(C)Cc2ccccc2-c2nc(NCCO)[nH]c(=O)c21 | -5.832%
Cc1cc(CN(C)C2CCCN(Cc3noc(C4CC4)n3)C2)no1 (stereo not shown) | -27.16%
CCOCCNC(=O)Cc1cccc(I)c1 | 12.08%
Cn1cc(CN(C(=O)c2ccc(O)c(Cl)c2)C2CC2)cn1 | -2.806%
CCOc1cc([C@@H]2N[C@H](c3nccs3)Cc3ccsc32)ccc1OC | -0.4394% and -0.2369%
Cc1ccc(Br)cc1NC(=O)NCC(O)CO (stereo not shown) | 6.999% and 1.619%
Cc1cc(-c2cc(F)ccc2C(=O)O)nc(C2CCCCN2C(C)C)n1 (stereo not shown) | -7.903%
CCOCCN1CCN(CC(=O)N2CCCC2)CC1CC (stereo not shown) | 5.308%
COCCN1C[C@@H](C(=O)O)[C@H](c2ccccc2C)C1 | -35.97%
CC1CN(Cc2nnsc2Cl)CCN1c1nccs1 (stereo not shown) | 11.4%
O=C(O)C(c1ccc2[nH]ccc2c1)N1CCN(c2cnccn2)CC1 (stereo not shown) | -0.9448%
Cc1ccccc1CC(=O)N(C)C1CCCC1 | -34.33%
CS(=O)(=O)CCC(=O)N(CCc1cccc(F)c1)C1CC1 | 5.623%
CC(C)=CCS(=O)(=O)Cc1ccn(-c2cccc(F)c2)n1 | 15.72%
O=c1nc(SCc2cccnc2)c2c(n1CCO)CCCC2 | -11.05%
CC(C)n1cnc2c1C(C(=O)N1CCOCC1)N(CC1CC1)CC2.O=C(O)C(F)(F)F (stereo not shown) | -2.764%
CN(C)C(=O)C1CCC2(CCN(Cc3ccc4ccccc4n3)CC2)O1 (stereo not shown) | -15.54%
COC(=O)N1CCC(CNC(=O)C2CC2)CC1 | -1.106%
O=C(CC1CCCO1)Nc1ccn(Cc2cccc3cccnc23)n1 (stereo not shown) | -18.07%
CCc1nccn1CCCNC(=O)CN1CCN(c2ncccn2)CC1 | -14.03% and 0.9223%
Cn1cc(N2CC3(CCN(Cc4cccs4)CC3)OCC2=O)cn1.O=C(O)C(F)(F)F | -4.979%
CC(C)c1cc(CN2CCC(N)CC2)no1 | -6.039%
N#Cc1ccc(C(=O)O)nc1/C=C/c1cccc(Cl)c1 | -25.03%
Fc1ccc(CNC2CCN(CCc3ccncc3)CC2)cc1F | -0.05842%
CNS(=O)(=O)CCCN1CCCCCC1c1ccc(C)o1 (stereo not shown) | 24.58%
CNC(=O)CNCC1(O)CCCN(Cc2ccc(F)c(F)c2)C1=O (stereo not shown) | -8.77%
O=C(NCC(O)CN1CCc2ccccc2C1)Nc1cccnc1 (stereo not shown) | -0.6611%
CCNC(=O)NCc1ccc(CN2CCCC(C)C2)cc1 (stereo not shown) | -2.849%
O=C1CCc2ccccc2N1CCCn1cnnn1 | 24.65%
CCNC(=O)c1ncn2c1CN(C)S(=O)(=O)c1ccccc1-2 | -21.38%
CNC(=O)C(C)(C)N1CCC[C@H]1C(=O)NCCN1CCCC1.Cl.Cl | -30.54%
O=C(O)C(F)(F)F.[H][C@@]12OCCN(CC3CC3)[C@@]1([H])CC[C@H]2OCC1CCOCC1 | -18.64%
O=C1CN(C(=O)CCn2c(C(F)(F)F)cc3cccnc32)CCN1 | 7.239%
CC(C)n1cc(S(=O)(=O)N2CCCC(N3CCCCC3)C2)cn1 (stereo not shown) | -19.96%
COCC(O)CN(C)c1ccnc2cc(F)ccc12 (stereo not shown) | -11.98%
O=C(O)C(F)(F)F.[H][C@@]12CCN(CCOC)C[C@]1([H])[C@H](C(=O)N1CCCO1)CCO2 | -16.94%
Cc1cc(C(=O)N2CC[C@@]3(C[C@@H](NS(C)(=O)=O)CCO3)C2)no1 | 11.7% and -11.22%
CCNc1cc2c(nn1)CCN(C(=O)Cc1ccc(C)s1)C2 | -22.24%
CCc1cnc(C)nc1N1CCN(Cc2ccc(-c3cc[nH]n3)o2)CC1 | -7.817% and -1.419%
COc1ccc(NC2(C(=O)N3CCCn4cncc4C3)CCCC2)cc1 | 2.437%
Cc1c(NCc2cccnc2)cccc1C(=O)N1CCC(N(C)C)C1 (stereo not shown) | -22.82%
CCC1CN(Cc2nnc(C3CC3)o2)CCC(=O)N1Cc1ccccc1 (stereo not shown) | -28.93%
COc1ccc(CC(=O)Nc2ccc3ncn(C(C)C)c(=O)c3c2)cc1 | 10.33%
O=C1NCCCc2[nH]c(Cc3cccc(F)c3)nc21 | -10.67%
CC1CCN(C(=O)C(C)n2cc(Br)cn2)CC1 (stereo not shown) | -3.123%
Cc1cccc2cc(CO)c(N3Cc4cnc(C(C)(C)C)nc4C3)nc12 | -28.07%
COc1cc(CSc2nnc(C)n2CC(N)=O)ccc1SC | -1.236%
Cc1nnc2n1CCN(CCC(=O)Nc1sccc1C#N)C2 | -10.28%
Cn1c(Cn2ncc(N3CCCC3)cc2=O)nc2ccccc21 | -5.932%
Cc1ccc(NC2CCN(C(=O)CCCc3ccccn3)CC2)nn1 | -12.1%
CCC1(CC)Cc2ccccc2-c2nc(CN(C)C)nc(O)c21 | -15.39%
CC(Nc1ccn(Cc2ccccn2)n1)C(=O)NC(C)(C)C (stereo not shown) | -7.428%

Once more, the final 9:

structure	Percent Effect
O=C1NCCCc2[nH]c(Cc3cccc(F)c3)nc21	-10.67%
CC1CCN(C(=O)C(C)n2cc(Br)cn2)CC1 (stereo not shown)	-3.123%
Cc1cccc2cc(CO)c(N3Cc4cnc(C(C)(C)C)nc4C3)nc12	-28.07%
COc1cc(CSc2nnc(C)n2CC(N)=O)ccc1SC	-1.236%
Cc1nnc2n1CCN(CCC(=O)Nc1sccc1C#N)C2	-10.28%
Cn1c(Cn2ncc(N3CCCC3)cc2=O)nc2ccccc21	-5.932%
Cc1ccc(NC2CCN(C(=O)CCCc3ccccn3)CC2)nn1	-12.1%
CCC1(CC)Cc2ccccc2-c2nc(CN(C)C)nc(O)c21	-15.39%
CC(Nc1ccn(Cc2ccccn2)n1)C(=O)NC(C)(C)C (stereo not shown)	-7.428%